Data on 23 targets can be found in the supplement of paper PMC12067093, “Discovery and optimisation of a covalent ligand for TRIM25 and its application to targeted protein ubiquitination” (Chemical Science, 2025).

Sequences of proteins named here, by UniProt entry; tags and fusion partners are left off. A change or cut given only in a name is not applied to a line headed by its entry.
UniProt Q14139: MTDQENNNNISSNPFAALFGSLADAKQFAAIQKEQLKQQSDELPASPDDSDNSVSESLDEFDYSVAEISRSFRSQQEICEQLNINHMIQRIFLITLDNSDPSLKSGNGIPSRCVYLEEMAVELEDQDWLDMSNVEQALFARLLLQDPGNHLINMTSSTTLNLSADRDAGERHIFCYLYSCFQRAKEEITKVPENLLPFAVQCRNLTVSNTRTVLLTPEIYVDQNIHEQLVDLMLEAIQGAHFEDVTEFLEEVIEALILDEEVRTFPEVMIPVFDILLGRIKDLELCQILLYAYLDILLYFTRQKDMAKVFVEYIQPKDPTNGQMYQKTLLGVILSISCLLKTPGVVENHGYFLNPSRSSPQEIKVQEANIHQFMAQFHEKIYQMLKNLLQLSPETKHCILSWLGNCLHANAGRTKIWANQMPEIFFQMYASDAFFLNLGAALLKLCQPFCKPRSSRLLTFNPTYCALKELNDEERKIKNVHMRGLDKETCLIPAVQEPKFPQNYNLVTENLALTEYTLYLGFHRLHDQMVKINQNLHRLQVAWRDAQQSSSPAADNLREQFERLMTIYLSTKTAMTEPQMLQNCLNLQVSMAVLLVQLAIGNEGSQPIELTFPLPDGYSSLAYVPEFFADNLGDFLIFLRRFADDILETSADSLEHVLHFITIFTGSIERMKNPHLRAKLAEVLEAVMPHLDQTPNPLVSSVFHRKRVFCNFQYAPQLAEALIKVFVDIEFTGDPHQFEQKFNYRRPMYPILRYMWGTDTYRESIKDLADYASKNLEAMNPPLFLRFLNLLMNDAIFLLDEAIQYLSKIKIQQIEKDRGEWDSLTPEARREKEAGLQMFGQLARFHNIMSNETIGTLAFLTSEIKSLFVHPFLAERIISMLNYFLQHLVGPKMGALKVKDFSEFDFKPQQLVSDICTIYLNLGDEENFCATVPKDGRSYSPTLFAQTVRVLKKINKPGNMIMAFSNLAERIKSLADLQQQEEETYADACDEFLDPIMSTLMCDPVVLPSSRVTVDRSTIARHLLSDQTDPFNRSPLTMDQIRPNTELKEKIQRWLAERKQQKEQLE
UniProt Q5T4S7, whole entry, looked up: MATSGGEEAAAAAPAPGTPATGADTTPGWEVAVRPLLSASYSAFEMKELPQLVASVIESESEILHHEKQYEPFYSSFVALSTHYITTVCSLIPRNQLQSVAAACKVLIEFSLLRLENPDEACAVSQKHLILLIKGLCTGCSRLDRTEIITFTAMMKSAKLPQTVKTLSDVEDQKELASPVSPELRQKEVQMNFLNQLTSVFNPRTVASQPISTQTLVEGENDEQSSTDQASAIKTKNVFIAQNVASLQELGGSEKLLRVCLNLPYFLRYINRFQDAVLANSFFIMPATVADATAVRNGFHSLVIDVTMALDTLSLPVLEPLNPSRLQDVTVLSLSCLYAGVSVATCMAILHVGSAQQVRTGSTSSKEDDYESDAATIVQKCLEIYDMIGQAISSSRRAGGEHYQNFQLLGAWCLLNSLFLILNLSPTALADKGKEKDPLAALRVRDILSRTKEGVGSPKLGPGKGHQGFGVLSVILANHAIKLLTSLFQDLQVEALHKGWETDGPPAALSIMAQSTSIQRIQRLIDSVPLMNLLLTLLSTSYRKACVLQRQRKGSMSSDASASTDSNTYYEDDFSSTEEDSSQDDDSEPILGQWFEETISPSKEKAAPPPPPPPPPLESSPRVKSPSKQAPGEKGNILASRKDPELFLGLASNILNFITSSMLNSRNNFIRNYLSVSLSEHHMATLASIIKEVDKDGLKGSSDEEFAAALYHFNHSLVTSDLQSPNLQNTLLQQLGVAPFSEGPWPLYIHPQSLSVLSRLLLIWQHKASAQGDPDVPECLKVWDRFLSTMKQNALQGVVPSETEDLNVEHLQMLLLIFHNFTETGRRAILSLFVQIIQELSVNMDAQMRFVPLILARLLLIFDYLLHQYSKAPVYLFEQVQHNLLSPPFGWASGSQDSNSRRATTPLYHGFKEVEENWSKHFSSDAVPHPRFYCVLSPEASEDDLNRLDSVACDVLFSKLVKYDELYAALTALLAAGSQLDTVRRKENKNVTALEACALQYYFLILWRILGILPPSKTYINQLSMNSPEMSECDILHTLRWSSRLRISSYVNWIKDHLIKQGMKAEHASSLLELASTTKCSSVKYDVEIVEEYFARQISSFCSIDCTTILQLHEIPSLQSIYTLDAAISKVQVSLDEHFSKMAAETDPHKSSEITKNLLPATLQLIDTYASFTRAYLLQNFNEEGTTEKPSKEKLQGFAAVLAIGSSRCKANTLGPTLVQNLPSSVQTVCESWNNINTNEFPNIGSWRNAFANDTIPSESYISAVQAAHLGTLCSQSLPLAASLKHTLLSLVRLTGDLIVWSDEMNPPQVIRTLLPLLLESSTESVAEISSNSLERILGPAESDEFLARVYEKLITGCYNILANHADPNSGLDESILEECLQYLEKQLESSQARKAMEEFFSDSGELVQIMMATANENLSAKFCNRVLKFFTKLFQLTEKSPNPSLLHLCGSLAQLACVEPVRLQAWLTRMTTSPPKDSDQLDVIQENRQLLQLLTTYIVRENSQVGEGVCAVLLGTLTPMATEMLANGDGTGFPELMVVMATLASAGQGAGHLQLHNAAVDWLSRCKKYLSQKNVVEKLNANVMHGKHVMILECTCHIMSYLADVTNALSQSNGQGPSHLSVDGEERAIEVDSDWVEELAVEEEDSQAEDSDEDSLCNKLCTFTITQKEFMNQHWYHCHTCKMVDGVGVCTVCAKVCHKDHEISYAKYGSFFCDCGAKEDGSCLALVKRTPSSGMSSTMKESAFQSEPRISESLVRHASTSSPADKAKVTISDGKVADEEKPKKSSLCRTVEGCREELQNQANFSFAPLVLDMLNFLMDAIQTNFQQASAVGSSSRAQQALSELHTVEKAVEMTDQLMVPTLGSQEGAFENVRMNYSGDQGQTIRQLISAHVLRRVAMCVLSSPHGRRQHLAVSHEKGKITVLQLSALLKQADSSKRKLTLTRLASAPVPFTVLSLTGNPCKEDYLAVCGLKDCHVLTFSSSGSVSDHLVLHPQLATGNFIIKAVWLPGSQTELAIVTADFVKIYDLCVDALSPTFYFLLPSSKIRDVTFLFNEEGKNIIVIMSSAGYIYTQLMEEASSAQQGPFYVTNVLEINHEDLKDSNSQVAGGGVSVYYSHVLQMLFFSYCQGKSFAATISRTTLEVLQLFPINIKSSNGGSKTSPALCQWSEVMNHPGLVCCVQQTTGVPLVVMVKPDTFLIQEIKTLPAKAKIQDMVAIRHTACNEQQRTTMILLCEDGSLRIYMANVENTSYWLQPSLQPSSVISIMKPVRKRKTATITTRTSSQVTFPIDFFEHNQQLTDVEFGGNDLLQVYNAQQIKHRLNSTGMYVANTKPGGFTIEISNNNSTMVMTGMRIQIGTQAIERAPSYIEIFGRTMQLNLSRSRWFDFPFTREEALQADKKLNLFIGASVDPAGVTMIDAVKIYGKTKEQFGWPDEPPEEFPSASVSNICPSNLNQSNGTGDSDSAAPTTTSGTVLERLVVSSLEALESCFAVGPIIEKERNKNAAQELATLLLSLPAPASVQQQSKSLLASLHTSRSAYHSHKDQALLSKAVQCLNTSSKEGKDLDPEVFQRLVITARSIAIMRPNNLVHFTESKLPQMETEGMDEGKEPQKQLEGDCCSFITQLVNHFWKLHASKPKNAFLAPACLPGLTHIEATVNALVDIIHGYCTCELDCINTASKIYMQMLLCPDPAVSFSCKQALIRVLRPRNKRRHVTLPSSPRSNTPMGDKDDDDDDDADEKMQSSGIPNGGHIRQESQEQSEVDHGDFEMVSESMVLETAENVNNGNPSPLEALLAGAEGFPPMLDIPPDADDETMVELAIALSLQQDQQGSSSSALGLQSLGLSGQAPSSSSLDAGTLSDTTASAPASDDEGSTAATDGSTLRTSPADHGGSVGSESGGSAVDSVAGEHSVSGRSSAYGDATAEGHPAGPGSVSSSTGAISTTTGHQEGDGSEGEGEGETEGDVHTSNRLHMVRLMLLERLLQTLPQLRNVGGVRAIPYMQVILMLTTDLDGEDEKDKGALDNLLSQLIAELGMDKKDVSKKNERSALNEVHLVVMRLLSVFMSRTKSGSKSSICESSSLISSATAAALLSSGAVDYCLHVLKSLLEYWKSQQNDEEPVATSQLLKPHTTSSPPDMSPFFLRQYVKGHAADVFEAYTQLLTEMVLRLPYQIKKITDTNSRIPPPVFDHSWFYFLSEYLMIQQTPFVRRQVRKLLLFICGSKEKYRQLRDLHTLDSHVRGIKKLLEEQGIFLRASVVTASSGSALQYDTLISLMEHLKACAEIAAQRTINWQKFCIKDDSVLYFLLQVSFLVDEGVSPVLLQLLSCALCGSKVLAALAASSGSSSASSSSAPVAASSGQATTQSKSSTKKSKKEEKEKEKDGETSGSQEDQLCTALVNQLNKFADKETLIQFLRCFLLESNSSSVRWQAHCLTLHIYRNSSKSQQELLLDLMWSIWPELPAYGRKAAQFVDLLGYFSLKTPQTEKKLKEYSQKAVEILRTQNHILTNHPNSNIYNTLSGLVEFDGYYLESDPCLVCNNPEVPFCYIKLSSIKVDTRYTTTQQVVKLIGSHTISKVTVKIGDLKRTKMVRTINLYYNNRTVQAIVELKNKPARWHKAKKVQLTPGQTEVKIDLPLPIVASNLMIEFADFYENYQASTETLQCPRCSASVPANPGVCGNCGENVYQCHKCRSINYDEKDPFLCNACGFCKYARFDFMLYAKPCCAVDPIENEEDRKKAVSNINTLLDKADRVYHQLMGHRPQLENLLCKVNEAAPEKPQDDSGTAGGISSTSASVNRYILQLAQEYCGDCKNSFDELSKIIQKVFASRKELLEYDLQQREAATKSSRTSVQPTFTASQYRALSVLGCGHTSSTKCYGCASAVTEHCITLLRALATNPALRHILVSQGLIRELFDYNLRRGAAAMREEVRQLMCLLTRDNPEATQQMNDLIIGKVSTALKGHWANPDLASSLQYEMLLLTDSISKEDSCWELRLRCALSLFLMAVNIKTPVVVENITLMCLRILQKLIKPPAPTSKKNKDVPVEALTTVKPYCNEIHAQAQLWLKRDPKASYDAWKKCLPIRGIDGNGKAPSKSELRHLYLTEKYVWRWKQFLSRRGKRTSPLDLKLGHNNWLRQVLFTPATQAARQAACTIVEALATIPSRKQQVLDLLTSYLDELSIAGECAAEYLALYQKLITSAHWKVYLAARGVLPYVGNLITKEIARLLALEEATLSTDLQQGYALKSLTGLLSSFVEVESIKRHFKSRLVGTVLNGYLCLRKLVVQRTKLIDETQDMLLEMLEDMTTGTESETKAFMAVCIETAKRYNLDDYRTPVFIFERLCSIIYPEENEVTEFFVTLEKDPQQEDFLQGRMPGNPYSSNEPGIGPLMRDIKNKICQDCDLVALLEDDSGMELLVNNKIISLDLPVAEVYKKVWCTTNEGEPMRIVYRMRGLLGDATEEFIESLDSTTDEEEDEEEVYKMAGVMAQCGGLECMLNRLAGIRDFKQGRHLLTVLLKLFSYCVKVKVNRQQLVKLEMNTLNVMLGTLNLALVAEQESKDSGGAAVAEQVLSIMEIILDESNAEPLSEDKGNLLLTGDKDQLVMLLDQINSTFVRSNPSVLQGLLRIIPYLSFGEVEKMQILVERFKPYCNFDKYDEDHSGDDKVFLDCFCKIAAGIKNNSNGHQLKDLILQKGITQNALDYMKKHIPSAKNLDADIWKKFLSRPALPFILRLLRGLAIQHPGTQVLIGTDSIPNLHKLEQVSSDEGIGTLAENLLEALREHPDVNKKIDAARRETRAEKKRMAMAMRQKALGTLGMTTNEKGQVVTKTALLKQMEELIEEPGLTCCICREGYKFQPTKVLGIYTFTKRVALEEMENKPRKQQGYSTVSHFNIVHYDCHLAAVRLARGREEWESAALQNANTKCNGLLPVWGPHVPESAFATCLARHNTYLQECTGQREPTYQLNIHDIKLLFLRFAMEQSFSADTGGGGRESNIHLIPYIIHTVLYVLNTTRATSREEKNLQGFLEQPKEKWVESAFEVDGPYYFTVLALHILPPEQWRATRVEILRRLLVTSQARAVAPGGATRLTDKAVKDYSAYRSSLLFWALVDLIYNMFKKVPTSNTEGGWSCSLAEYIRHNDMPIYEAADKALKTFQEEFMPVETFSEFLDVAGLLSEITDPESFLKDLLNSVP
UniProt P61081: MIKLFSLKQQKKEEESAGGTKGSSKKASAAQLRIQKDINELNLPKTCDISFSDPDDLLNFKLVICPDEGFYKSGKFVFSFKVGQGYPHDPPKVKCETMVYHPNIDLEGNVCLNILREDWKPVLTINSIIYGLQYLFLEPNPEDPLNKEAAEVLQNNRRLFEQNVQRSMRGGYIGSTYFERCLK
UniProt Q13404: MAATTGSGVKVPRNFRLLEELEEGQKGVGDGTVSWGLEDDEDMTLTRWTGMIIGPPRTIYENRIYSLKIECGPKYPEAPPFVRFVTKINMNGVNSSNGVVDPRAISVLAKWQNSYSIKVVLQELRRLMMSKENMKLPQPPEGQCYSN

Some of the results follow.

Compound in this experiment: CC1Cc2ccccc2N1C(=O)C1CCCN(C1)C(=O)CCl (mixture of isomers) [TRIM25 ligand 11 (diastereomer mixture)]
Put plainly: probe-labelled cysteine peptide fold change vs DMSO (competition) (log2 fold change); higher = less target engagement (more negative = stronger competition). Particulars: THP-1, incubation time: 4 h.
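Also: competitive chemoproteomic profiling in live THP-1 cells with an iodoacetamide desthiobiotin (IA-DTB) probe, comparing probe-labelled peptide intensities in compound-treated cells against DMSO-treated controls.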

For “UBE2O_Q9C0C9_598_VQSCPDPAVYGVVQSGDHIGR (UniProt Q9C0C9)”, the “probe-labelled cysteine peptide fold change” value (10 µM) is -0.0239 and the “probe-labelled cysteine peptide fold change” value (50 µM) is -0.0974.

Take “UBE2A_P49459_88_MFHPNVYADGSICLDILQNR (UniProt P49459)”: the “probe-labelled cysteine peptide fold change” value by setting is: (10 µM) -0.181; (50 µM) -0.0675.

On to “TXNL4B_Q9NX01_38_FGRDEDPVCLQLDDILSK (UniProt Q9NX01)”, for which the “probe-labelled cysteine peptide fold change” value was 0.0238 (10 µM) and -0.167 (50 µM).

“TYW3_Q6IPR3_109_FEPFVLHVQCR (UniProt Q6IPR3)”: the “probe-labelled cysteine peptide fold change” value runs as follows: (10 µM) 0.0625; (50 µM) 0.0745.

As for “TXNL1_O43396_64_YPQAVFLEVDVHQCQGTAATNNISATPTFLFFR (UniProt O43396)”, the “probe-labelled cysteine peptide fold change” value reads like this: (10 µM) 0.218; (50 µM) -0.00695.

For “UBE4A_Q14139_490_ETCLIPAVQEPK (UniProt Q14139)”, the “probe-labelled cysteine peptide fold change” value was 0.0761 (10 µM) and -0.16 (50 µM).

With “UBE4B_O95155_534_ECSLDSDYFK (UniProt O95155)”, the “probe-labelled cysteine peptide fold change” value by setting is: (10 µM) 0.0295; (50 µM) 0.207.

For “UBR4_Q5T4S7_2554_AVQCLNTSSK (UniProt Q5T4S7)”, the “probe-labelled cysteine peptide fold change” value runs as follows: (10 µM) -0.134; (50 µM) -0.237.

On to “UAP1_Q16222_293_TNPTEPVGVVCR (UniProt Q16222)”, for which the “probe-labelled cysteine peptide fold change” value (10 µM) is -0.0538 and the “probe-labelled cysteine peptide fold change” value (50 µM) came out at 0.0302.

Consider “UBE2M_P61081_47_TCDISFSDPDDLLNFK (UniProt P61081)”, for which the “probe-labelled cysteine peptide fold change” value runs as follows: (10 µM) -0.0194; (50 µM) 0.00465.

On to “UBAP2_Q5T6F2_104_AINILLEGNSDTTSWETVGCK (UniProt Q5T6F2)”, for which the “probe-labelled cysteine peptide fold change” value was -0.0614 (10 µM) and 0.0342 (50 µM).

As to “UBA1_P22314_1040_ALVLELCCNDESGEDVEVPYVR (UniProt P22314)”, the “probe-labelled cysteine peptide fold change” value runs as follows: (10 µM) 0.14; (50 µM) 0.0716.

As for “TXNRD1_Q16881_625_QLDSTIGIHPVCAEVFTTLSVTK (UniProt Q16881)”, the “probe-labelled cysteine peptide fold change” value runs as follows: (10 µM) 0.301; (50 µM) 0.194.

Consider “UBE2G1_P62253_90_NGDVCISILHEPGEDK (UniProt P62253)”, for which the “probe-labelled cysteine peptide fold change” value runs as follows: (10 µM) 0.0654; (50 µM) 0.079.

For “UBE2T_Q9NPD8_24_ELHMLATEPPPGITCWQDKDQMDDLR (UniProt Q9NPD8)”, the “probe-labelled cysteine peptide fold change” value is, setting by setting: (10 µM) -0.0769; (50 µM) -0.334.

As for “UBE2E1_P51965_122_IYHCNINSQGVICLDILK (UniProt P51965)”, the “probe-labelled cysteine peptide fold change” value (10 µM) is 0.0904 and the “probe-labelled cysteine peptide fold change” value (50 µM) was found to be 0.136.

As for “UACA_Q9BZF9_1258_KYEEVCEEVLHAK (UniProt Q9BZF9)”, the “probe-labelled cysteine peptide fold change” value (10 µM) worked out at 0.0786 and the “probe-labelled cysteine peptide fold change” value (50 µM) was 0.0395.

Turning to “UBE2M_P61081_111_CETMVYHPNIDLEGNVCLNILR (UniProt P61081)”, the “probe-labelled cysteine peptide fold change” value was 0.0742 (10 µM) and 0.0219 (50 µM).

For the target “UBE3A_Q05086_843_LPTSHTCFNVLLLPEYSSK (UniProt Q05086)”, the “probe-labelled cysteine peptide fold change” value by setting is: (10 µM) -0.0344; (50 µM) -0.0828.

For the target “TYK2_P29597_402_CLELSLPSR (UniProt P29597)”, the “probe-labelled cysteine peptide fold change” value runs as follows: (10 µM) 0.176; (50 µM) 0.126.

Regarding “UBE2V1_Q13404_71_IECGPK (UniProt Q13404)”, the “probe-labelled cysteine peptide fold change” value by setting is: (10 µM) -0.388; (50 µM) -0.214.

Take “UBE4A_Q14139_465_LLTFNPTYCALK (UniProt Q14139)”: the “probe-labelled cysteine peptide fold change” value reads like this: (10 µM) 0.0335; (50 µM) -0.045.

Consider “UBR4_Q5T4S7_2618_QLEGDCCSFITQLVNHFWK (UniProt Q5T4S7)”, for which the “probe-labelled cysteine peptide fold change” value by setting is: (10 µM) 0.0953; (50 µM) 0.131.
